The source of these data is PMC4284759.

Sequences of proteins named here, by UniProt entry; tags and fusion partners are left off.
UniProt Q8N122: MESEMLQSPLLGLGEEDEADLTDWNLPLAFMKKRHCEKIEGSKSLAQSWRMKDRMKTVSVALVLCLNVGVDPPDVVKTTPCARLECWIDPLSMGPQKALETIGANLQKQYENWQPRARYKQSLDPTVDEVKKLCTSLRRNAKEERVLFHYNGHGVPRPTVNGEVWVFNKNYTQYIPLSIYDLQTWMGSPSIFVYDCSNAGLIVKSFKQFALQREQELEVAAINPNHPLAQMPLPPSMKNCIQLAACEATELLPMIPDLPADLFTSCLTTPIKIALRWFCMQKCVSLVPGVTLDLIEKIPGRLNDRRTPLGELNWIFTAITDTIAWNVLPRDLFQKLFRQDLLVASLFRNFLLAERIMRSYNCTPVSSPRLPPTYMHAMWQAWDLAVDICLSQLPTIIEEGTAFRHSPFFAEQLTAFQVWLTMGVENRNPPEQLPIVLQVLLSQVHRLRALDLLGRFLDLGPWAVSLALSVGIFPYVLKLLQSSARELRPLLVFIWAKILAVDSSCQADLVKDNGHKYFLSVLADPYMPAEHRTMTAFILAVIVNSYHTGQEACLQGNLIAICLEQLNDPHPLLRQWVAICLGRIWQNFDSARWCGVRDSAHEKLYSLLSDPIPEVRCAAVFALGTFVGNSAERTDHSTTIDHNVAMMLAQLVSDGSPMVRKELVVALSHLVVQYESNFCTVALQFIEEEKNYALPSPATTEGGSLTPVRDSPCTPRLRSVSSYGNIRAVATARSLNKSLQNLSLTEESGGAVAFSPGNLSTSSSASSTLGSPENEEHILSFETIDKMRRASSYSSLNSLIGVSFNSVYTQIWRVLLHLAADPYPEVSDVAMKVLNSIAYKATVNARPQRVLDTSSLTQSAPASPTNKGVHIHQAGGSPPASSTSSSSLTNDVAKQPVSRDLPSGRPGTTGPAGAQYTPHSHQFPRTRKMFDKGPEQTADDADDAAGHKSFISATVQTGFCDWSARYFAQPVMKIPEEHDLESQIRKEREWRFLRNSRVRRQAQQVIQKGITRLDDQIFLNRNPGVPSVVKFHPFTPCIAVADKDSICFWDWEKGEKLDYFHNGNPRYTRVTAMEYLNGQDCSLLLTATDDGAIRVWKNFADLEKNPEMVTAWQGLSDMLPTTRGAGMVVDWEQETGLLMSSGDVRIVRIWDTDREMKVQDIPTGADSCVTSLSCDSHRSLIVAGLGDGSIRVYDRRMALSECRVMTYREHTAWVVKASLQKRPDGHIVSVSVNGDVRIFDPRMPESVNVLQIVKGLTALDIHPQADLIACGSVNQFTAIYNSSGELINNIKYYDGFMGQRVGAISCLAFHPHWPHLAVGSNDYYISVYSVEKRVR
UniProt Q6R327: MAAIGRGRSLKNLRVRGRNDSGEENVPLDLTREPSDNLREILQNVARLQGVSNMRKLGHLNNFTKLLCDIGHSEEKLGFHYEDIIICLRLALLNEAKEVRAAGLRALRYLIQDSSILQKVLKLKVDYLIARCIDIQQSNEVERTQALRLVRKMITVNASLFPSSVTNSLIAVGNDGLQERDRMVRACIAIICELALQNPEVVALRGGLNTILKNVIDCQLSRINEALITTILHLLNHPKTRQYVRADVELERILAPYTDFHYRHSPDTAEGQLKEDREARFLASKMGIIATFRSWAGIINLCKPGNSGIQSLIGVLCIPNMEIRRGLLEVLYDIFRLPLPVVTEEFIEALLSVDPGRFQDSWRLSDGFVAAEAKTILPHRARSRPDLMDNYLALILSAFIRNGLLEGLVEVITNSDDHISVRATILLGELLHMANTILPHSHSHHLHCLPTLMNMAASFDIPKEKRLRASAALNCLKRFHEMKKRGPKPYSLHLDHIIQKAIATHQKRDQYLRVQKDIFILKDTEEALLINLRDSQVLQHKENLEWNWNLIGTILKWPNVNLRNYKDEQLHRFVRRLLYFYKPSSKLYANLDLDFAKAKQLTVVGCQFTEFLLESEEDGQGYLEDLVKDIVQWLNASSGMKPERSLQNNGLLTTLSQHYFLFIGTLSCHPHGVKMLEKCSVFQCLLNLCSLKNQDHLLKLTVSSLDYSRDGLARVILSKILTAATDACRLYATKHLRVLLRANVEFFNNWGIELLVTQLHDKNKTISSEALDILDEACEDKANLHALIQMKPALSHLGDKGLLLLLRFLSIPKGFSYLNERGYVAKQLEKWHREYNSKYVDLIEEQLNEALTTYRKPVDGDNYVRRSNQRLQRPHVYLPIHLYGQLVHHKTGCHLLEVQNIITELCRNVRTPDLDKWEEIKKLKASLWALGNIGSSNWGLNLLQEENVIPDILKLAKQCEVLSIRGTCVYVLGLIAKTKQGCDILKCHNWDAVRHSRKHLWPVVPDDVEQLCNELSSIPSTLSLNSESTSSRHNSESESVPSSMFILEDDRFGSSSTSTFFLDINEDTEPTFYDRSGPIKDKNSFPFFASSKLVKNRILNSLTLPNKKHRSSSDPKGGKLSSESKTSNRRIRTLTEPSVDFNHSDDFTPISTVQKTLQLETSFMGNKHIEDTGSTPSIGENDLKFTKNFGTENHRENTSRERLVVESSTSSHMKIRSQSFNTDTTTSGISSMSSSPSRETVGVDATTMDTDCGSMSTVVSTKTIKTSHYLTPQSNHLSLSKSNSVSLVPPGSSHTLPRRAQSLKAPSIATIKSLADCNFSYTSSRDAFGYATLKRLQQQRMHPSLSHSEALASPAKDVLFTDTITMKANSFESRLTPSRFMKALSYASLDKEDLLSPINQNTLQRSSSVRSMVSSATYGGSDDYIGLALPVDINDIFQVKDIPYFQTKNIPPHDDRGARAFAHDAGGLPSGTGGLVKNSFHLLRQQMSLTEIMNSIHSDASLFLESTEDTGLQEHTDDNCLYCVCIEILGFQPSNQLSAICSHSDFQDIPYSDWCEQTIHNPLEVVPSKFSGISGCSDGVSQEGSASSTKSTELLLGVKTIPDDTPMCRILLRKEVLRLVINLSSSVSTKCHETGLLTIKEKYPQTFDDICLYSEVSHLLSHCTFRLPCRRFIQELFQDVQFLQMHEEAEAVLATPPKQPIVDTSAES

No constants are given. Whether binding was seen depends on the method and setting. Binding seen in cells or lysates may run through a third protein. Some binding calls cover weakened binding; strength is not graded here.

The target of test [1] is T1, enhancer of mRNA decapping protein 4 (Edc4) (human (endogenous in CCRF-CEM)) (UniProt Q6P2E9).
T1 sequence: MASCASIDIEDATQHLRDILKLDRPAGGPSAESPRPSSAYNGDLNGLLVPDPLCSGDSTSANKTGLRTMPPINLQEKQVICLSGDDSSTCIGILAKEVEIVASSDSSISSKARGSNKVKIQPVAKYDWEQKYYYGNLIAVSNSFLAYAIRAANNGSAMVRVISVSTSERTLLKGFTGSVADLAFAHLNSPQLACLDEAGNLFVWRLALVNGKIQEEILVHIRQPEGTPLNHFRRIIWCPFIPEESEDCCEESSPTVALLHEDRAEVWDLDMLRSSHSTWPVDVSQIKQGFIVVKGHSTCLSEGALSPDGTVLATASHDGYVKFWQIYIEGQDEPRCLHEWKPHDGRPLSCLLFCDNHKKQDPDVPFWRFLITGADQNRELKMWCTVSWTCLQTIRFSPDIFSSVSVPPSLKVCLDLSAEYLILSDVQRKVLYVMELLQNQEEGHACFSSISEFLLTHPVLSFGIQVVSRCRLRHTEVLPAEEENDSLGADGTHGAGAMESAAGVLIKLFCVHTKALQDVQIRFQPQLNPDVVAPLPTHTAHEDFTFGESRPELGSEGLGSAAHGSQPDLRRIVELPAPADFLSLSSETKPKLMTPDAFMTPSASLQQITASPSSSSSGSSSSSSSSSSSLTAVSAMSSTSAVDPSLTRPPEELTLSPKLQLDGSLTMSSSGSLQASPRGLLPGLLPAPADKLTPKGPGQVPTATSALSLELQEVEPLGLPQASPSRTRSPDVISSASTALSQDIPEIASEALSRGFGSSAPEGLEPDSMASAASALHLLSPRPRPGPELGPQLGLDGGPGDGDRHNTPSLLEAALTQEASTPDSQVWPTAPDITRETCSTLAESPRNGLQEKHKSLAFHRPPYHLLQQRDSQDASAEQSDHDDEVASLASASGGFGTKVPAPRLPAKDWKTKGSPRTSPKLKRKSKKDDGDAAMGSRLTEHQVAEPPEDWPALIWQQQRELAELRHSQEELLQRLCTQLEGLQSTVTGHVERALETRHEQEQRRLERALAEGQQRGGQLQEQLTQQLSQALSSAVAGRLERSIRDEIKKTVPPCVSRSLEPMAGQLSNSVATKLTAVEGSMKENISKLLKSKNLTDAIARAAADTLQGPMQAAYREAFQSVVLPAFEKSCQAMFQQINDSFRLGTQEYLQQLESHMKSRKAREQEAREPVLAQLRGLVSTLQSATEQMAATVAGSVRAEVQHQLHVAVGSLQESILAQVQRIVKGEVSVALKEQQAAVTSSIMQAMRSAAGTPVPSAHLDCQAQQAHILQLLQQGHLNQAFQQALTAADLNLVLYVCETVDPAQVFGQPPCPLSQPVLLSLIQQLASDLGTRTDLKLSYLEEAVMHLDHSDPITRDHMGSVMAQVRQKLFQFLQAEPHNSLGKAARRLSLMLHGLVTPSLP
In words: co-IP; endogenous proteins from CCRF-CEM lysate in 0.3% CHAPS buffer; raptor, Edc4 or rictor antibody with Dynabeads G, overnight at 4 °C; immunoblot of the elutes; mock control without antibody; also DMSO-treated cells. For orientation: A western blot detects proteins with antibodies after separation by electrophoresis.

Another test addresses myc-tag raptor (UniProt Q8N122). Put plainly: co-IP; CCRF-CEM cells transiently transfected with myc-tag raptor pRK5 plasmid (48 h), lysed in 0.3% CHAPS buffer; myc-tag monoclonal antibody conjugated beads overnight at 4 °C; immunoblot for endogenous Edc4.
The target of test [2] is regulatory associated protein of mTOR (raptor) (human (endogenous in CCRF-CEM)) (UniProt Q8N122). In words: co-IP; CCRF-CEM cells treated with rapamycin for one hour, lysed with CHAPS buffer; endogenous raptor IP, immunoblot for Edc4.
For test [3], the target named is rapamycin insensitive companion of mTOR (rictor) (human (endogenous in CCRF-CEM)) (UniProt Q6R327). Put plainly: co-IP; endogenous proteins from CCRF-CEM lysate in 0.3% CHAPS buffer; raptor, Edc4 or rictor antibody with Dynabeads G, overnight at 4 °C; immunoblot of the elutes; mock control without antibody; also DMSO-treated cells.
Test [4] addresses regulatory associated protein of mTOR (raptor) (human (endogenous in CCRF-CEM)) (UniProt Q8N122). The test is described as above.

With “regulatory associated protein of mTOR (raptor) (from UniProt Q8N122 1-1335)”, the binding entry in test [1] was “binds”.

B1: enhancer of mRNA decapping protein 4 (Edc4) (protein, UniProt Q6P2E9 1-1401)
chain: T1 sequence
Turning to B1, the binding result with myc-tag raptor is given as “binds”; in test [2], “binds weakly”; in test [3], “no binding”; in test [4], “binds”.
